# Test results as given in PubChem BioAssay AID2551 (National Center for Advancing Translational Sciences (NCATS), 2010).
# By UniProt entry, the sequences of proteins in these tests, tags left out. Where a name states a change or a piece, a line headed by the entry shows the natural chain unless it says otherwise.
# UniProt P51450: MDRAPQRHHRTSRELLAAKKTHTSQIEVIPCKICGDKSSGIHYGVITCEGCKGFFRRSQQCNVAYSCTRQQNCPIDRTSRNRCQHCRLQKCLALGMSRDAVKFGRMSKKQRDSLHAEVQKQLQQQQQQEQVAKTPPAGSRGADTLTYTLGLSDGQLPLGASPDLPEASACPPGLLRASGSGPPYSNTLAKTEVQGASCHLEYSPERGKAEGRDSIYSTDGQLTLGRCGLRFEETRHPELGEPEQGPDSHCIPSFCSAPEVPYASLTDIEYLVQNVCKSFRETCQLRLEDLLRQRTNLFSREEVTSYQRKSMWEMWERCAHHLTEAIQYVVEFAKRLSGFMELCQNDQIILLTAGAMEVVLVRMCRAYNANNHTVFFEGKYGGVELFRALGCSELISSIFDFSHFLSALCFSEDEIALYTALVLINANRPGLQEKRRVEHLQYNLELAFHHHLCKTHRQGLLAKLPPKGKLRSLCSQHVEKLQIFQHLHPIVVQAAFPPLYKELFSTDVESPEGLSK
# In all, about 310,000 compounds went through this assay and about 17,000 (5.5%) were called active. Inconclusive results, whose numbers are uncertain, are shown with a selection of clear calls. Calls follow the shape of the dose curve; as a rule, active = well fitted inhibition curve with a large enough effect; inconclusive = small, poorly fitted or top-dose-only effect, or effect the other way; inactive = no such curve, though single readings can be large or run the other way. A potency beside an inconclusive call is a rough fit, not a confirmed value.
# Biological target: Nuclear receptor ROR-gamma (Mus musculus) (UniProt P51450)
# Assay: qHTS for inhibitors of ROR gamma transcriptional activity; also: nearly all actives have a fitted effect of over 60% in size
# Conditions: Drosophila S2 Gal4-RORgamma UAS-luciferase reporter, 20 h; activity change, negative = inhibition: at 53.6 µM (top of the series)
# Method in brief: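 Luminescence from a UAS-regulated Photinus luciferase reporter in stably transfected Drosophila Schneider cells is measured; decreased signal marks ROR gamma inhibition. Fusion expression is induced by 700 uM copper sulfate for 20 hr.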
# % is scaled to controls: 0 for no effect and ±100 for the full control effect; potency is read from the fitted curve at half-maximal effect.
SMILES,Potency,"activity change, negative = inhibition"
COc1ccc(CN(C)C(=O)c2oc3ccccc3c2CSC)cc1F,"inconclusive: 35.5 µM [activator, single point]",
CC1(C)Cc2nc3sc4c(=O)n(CC(=O)NCc5ccco5)cnc4c3cc2CO1,"inconclusive: 14.1 µM [activator, partial curve, poor fit]",
O=C(N/N=C/c1ccc[nH]1)c1cc(-c2ccc(Cl)cc2)nc2ccccc12,active: 1.41 µM,
Cc1ccc(S(=O)(=O)Nc2ccc(-c3csc(-c4ccccc4)n3)cc2)cc1,,inactive: -79.1%
COCC(C)n1c(SCc2ccc(C(=O)OC)cc2)nc2ccccc2c1=O (configuration not stated),"inconclusive: 7.08 µM [activator, partial curve]",
Cc1cc(C)c(C(N)=O)c(NC(=O)Nc2ccccc2Cl)n1,"inconclusive: 5.01 µM [activator, single point]",
Cc1cc(=O)oc2cc(NC(=O)c3cc4ccccc4o3)ccc12,,inactive: 37%
Cc1ccc(NC(=O)Cn2c(=O)oc3ccccc32)cc1C,,inactive: 9.2% [at 1.91 µM]
Cc1cccc(-n2c(SCC(=O)NCc3ccc4c(c3)OCO4)nc3ccccc3c2=O)c1,"inconclusive: 5.62 µM [activator, partial curve]",
COc1cccc(NC(=S)NCCCN2CCOCC2)c1,,inactive: -6.97%
C=CC[C@](C)(Nc1ccc(OC)cc1)C(=O)OCC,"inconclusive: 0.141 µM [inhibitor, single point]",
CCCn1c(C)cs/c1=N\C(=S)Nc1ccccc1,active: 3.98 µM,
O=S(=O)(CCSc1ccccn1)c1nc2ccccc2s1,active: 12.6 µM,
Cc1ccc(Nc2nc(CSc3nnc(-c4ccc(F)cc4)n3C)cs2)cc1,active: 11.2 µM,
O=C(Nc1ccc(N2CCCC2)cc1)c1cc([N+](=O)[O-])ccc1N1CCOCC1,"inconclusive: 11.2 µM [activator, single point]",
O=C(Nc1ccc2oc(=O)ccc2c1)c1cccnc1Cl,,inactive: -12.4%
Cc1cc(C)cc(CSCC(=O)N/N=C/c2ccc(OCC(=O)NCc3ccco3)cc2)c1,"inconclusive: 10 µM [activator, partial curve]",
c1ccc(-n2ncc3c(N4CCCCC4)ncnc32)cc1,active: 5.01 µM,
COc1cccc(-c2nn(C)c3sc(C(=O)Nc4ccc5c(c4)OCCO5)cc23)c1,"inconclusive: 8.91 µM [activator, partial curve]",
O=C(NCCCn1ccnc1)C(=O)NCC1OCCCN1S(=O)(=O)c1ccc(Cl)cc1 (configuration not stated),"inconclusive: 35.5 µM [activator, single point]",
CC(C)c1ccc2c(c1)C(c1cccs1)=NNC(c1ccncc1)=N2,,inactive: -0.554%
COc1ccc(OC)c(C(O)c2coc3ccc(O)c(CN4CCOCC4)c23)c1 (configuration not stated),"inconclusive: 11.2 µM [activator, single point]",
Cc1c(Cl)cccc1NC(=O)CCN1CCN(C)CC1,,inactive: -0.73%
O=C(N/N=C/c1sc2ccccc2c1O)c1cccc2ccccc12,active: 1.78 µM,
c1ccc2[nH]cnc2c1,,inactive: -0.802%
Cc1cccc2sc(N(CCCN(C)C)C(=O)CN3C(=O)c4ccccc4C3=O)nc12,,inactive: -19.2%

# Reprinted from the entries so far (14 entries):
SMILES,Potency,"activity change, negative = inhibition"
O=C(N/N=C/c1ccc[nH]1)c1cc(-c2ccc(Cl)cc2)nc2ccccc12,active: 1.41 µM,
Cc1ccc(S(=O)(=O)Nc2ccc(-c3csc(-c4ccccc4)n3)cc2)cc1,,inactive: -79.1%
COCC(C)n1c(SCc2ccc(C(=O)OC)cc2)nc2ccccc2c1=O (configuration not stated),"inconclusive: 7.08 µM [activator, partial curve]",
Cc1cc(C)c(C(N)=O)c(NC(=O)Nc2ccccc2Cl)n1,"inconclusive: 5.01 µM [activator, single point]",
Cc1cc(=O)oc2cc(NC(=O)c3cc4ccccc4o3)ccc12,,inactive: 37%
Cc1ccc(NC(=O)Cn2c(=O)oc3ccccc32)cc1C,,inactive: 9.2% [at 1.91 µM]
Cc1cccc(-n2c(SCC(=O)NCc3ccc4c(c3)OCO4)nc3ccccc3c2=O)c1,"inconclusive: 5.62 µM [activator, partial curve]",
COc1cccc(NC(=S)NCCCN2CCOCC2)c1,,inactive: -6.97%
C=CC[C@](C)(Nc1ccc(OC)cc1)C(=O)OCC,"inconclusive: 0.141 µM [inhibitor, single point]",
CCCn1c(C)cs/c1=N\C(=S)Nc1ccccc1,active: 3.98 µM,
O=S(=O)(CCSc1ccccn1)c1nc2ccccc2s1,active: 12.6 µM,
Cc1ccc(Nc2nc(CSc3nnc(-c4ccc(F)cc4)n3C)cs2)cc1,active: 11.2 µM,
O=C(Nc1ccc(N2CCCC2)cc1)c1cc([N+](=O)[O-])ccc1N1CCOCC1,"inconclusive: 11.2 µM [activator, single point]",
O=C(Nc1ccc2oc(=O)ccc2c1)c1cccnc1Cl,,inactive: -12.4%

# The listing continues:

SMILES,Potency,"activity change, negative = inhibition"
Cc1ccc2c(c1)-c1[nH]c(=S)ncc1CS2,active: 2.24 µM,
CCOc1ccccc1C(=S)NC1CCCCC1,active: 10 µM,
Cc1ccc(OCCCCNC(C)c2ccccc2)c(C)c1 (configuration not stated),,inactive: 27.3% [at 1.91 µM]
Cc1ccc2cc(S(=O)(=O)NCCCN3CCOCC3)ccc2c1,"inconclusive: 14.1 µM [activator, partial curve, poor fit]",
COc1ccc(CC(=O)NNC(=O)c2ccccn2)cc1,"inconclusive: 28.2 µM [inhibitor, single point]",
CC(C)c1ccccc1NC(=S)NCC1(N(C)C)CCCCC1,active: 15.8 µM,
NS(=O)(=O)c1ccc(NC(=O)c2cc(Cl)sc2Cl)cc1,"inconclusive: 35.5 µM [activator, single point]",
O=[N+]([O-])c1cccnc1S(=O)(=O)c1ccccc1,active: 8.91 µM,
Cc1cc(C)nc(SCc2csc(N)n2)n1,"inconclusive: 12.6 µM [activator, single point]",
COC(=O)c1cc(=O)n(-c2ccc(F)cc2)c(=Nc2ccc(F)cc2)s1,"inconclusive: 28.2 µM [inhibitor, single point]",
Cn1c(-c2sc3cc(C(F)(F)F)cnc3c2-c2cccs2)n[nH]c1=S,active: 2.82 µM,
Cc1ccc(OCC(=O)NC(=S)Nc2ccc(Br)cn2)cc1,"inconclusive: 1.12 µM [inhibitor, single point]",
O=C(Cn1cnc2ccccc21)N/N=C/c1ccco1,active: 12.6 µM,
Nc1ccc2c(c1)Nc1ccccc1CC2,,inactive: 24.5%
CCN1C(=O)NC2C1N(S(C)(=O)=O)CCN2S(C)(=O)=O (configuration not stated),,inactive: -13%
COc1ccc2c(c1)OCC(Cc1ccc(OC)c(OC(C)=O)c1)C2=O (configuration not stated),"inconclusive: 20 µM [activator, single point]",
CCOC(=O)c1nnsc1-c1ccc(-c2snnc2C(=O)OCC)cc1,,inactive: 6.48%
CCN(Cc1ccccc1)C(=S)Nc1cc(C(=O)OC)ccc1C(=O)OC,"inconclusive: 35.5 µM [inhibitor, single point]",
O=C(c1ccccc1)c1ccc2nc(N3CCN(C(=O)c4ccco4)CC3)c3nncn3c2c1,,inactive: 2.67%
Cc1csc(=Nc2cccnc2)n1CC1CCCCC1,"inconclusive: 35.5 µM [inhibitor, single point]",
NC(=O)[C@@H]1CC2(CC(c3cccc(NC(=O)CC(c4ccccc4)c4ccccc4)c3)=NO2)CN1C(=O)COc1ccc(Cl)cc1 (some centres not stated),,inactive: 12.3%
c1csc(-c2noc(CN3CCc4sccc4C3)n2)c1,"inconclusive: 10 µM [activator, partial curve]",
Cc1ccc(N2CCN(S(=O)(=O)c3ccc(F)cc3)CC2)c(C)c1,"inconclusive: 11.2 µM [activator, partial curve]",
O=Cc1[nH]c2ccccc2c1N(C(=O)CCl)c1ccccc1,,inactive: 20.3%
O=C(c1ccco1)N1c2ccccc2Sc2ccccc21,,inactive: -4.71%
COc1ccc2nc(NC(=O)CSC3=NCCS3)sc2c1,"inconclusive: 15.8 µM [inhibitor, single point]",
